Data taken from PMC7819943, “Rice protein-binding microarrays: a tool to detect cis-acting elements near promoter regions in rice”.
The list shows a part of the results.

Molecular target: T1, OsSMF1 (Oryza sativa, UniProt Q6ZLB0 1-436)
T1 sequence: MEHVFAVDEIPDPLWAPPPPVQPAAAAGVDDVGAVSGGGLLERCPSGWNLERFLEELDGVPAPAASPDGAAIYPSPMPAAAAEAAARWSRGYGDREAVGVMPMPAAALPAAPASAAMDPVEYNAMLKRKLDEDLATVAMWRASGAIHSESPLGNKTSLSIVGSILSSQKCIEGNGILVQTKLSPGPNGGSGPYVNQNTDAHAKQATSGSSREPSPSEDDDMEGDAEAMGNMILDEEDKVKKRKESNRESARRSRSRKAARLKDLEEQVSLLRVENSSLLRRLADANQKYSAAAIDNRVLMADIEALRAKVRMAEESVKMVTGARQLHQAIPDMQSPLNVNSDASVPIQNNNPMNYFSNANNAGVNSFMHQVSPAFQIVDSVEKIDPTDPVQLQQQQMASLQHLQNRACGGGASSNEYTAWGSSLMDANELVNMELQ
Assay: protein-binding microarray (RPBM); PBS, 2% BSA, 51.3 ng/ul salmon testes DNA, 50 uM zinc acetate, 200 nM TF, 25 C, 1 h; high values mean tight binding
Conditions: protein: recombinant; tags: N-terminal polyhistidine and DsRed monomer fusion (pET32a); chain copies: 2; label: CyDye5-dUTP incorporated in the synthesized complementary strand; 3' TTTTT single-stranded linker to array surface; dsDNA, one strand shown
How it was run: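 A custom Agilent array was converted to double-stranded form by primer extension with Cy5-dUTP and blocked with 2% BSA. Protein at 200 nM in PBS with 2% BSA, salmon testes DNA and 50 µM zinc acetate was applied for 1 h at 25 °C, followed by washing. The proteins were polyhistidine–DsRed N-terminal fusions of transcription factors, expressed in E. coli BL21-CodonPlus and Ni–NTA-purified. The binding signal is per-feature fluorescence intensity (arbitrary units) from an Axon 4000B scanner.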

Sequence	binding signal
TATATATAACAGAAATTTGACATGTGGCTCTATCTTATACCGGAGTCACCTAGTGCAG	4760 fluorescence intensity (a.u.)
CCGGCCTCACGGCTCACCTGACCTGTCACCTGAATCACCTCGGAGTCACCTAGTGCAG	6440 fluorescence intensity (a.u.)
CGACATCGGCCAGAAGCTCACCATGATGTTCTACGAGCGCCGGAGTCACCTAGTGCAG	3280 fluorescence intensity (a.u.)
GTATAATATGTGTCGGTAATCTGTAGACTGGCTGACTGGGCGGAGTCACCTAGTGCAG	6040 fluorescence intensity (a.u.)
TTTGATGATGTGGCGAGCTAATTCTCAGCTATTCCCACGGCGGAGTCACCTAGTGCAG	8480 fluorescence intensity (a.u.)
AAAGATTAATCCATCCAGGCACGCAGGATCCGAGTCAGTCCGGAGTCACCTAGTGCAG	4430 fluorescence intensity (a.u.)
ACTGGCCATGCTGCTTAACGCTGATCCATGGTGACTTGGCCGGAGTCACCTAGTGCAG	6050 fluorescence intensity (a.u.)
GAAAATAAAAGGAAACGTCACACGCAGCTCCGCCGCAACCCGGAGTCACCTAGTGCAG	3570 fluorescence intensity (a.u.)
AGGTGAGGCGAGGCGGTTACGCTGGCAGCACTCATCTCGTCGGAGTCACCTAGTGCAG	3240 fluorescence intensity (a.u.)
CAACCACCAACTCCACACGCTGTTCATGTCACGACGGTTTCGGAGTCACCTAGTGCAG	3290 fluorescence intensity (a.u.)
AGGGGTGATGTTTCGGAGTTTGGTGGCATCATCATCATCCCGGAGTCACCTAGTGCAG	3540 fluorescence intensity (a.u.)
CCACAGTCGCTTGCCGACGAGCTTGAAGCCTCAACGACATCGGAGTCACCTAGTGCAG	4790 fluorescence intensity (a.u.)
ACAGCCGTACCCCACATACACCCTCTGCTCATGCCCTGCCCGGAGTCACCTAGTGCAG	3240 fluorescence intensity (a.u.)
CCATTTCGAACAAATTGTAAAGAATCTGACGTTTTATTTCCGGAGTCACCTAGTGCAG	3870 fluorescence intensity (a.u.)
TAACAGGGAGGCGTATTTCATAGCGAACGTGACACGCAGACGGAGTCACCTAGTGCAG	3140 fluorescence intensity (a.u.)
GGTGGGCCGTAGCCCACGTGGGCCCAATTGACAAGGTGGGCGGAGTCACCTAGTGCAG	4380 fluorescence intensity (a.u.)
TATCCTTTTCCGGCTACGTGTTGATTTTGCTCGTTTGTTCCGGAGTCACCTAGTGCAG	3580 fluorescence intensity (a.u.)
TCCAATGTTCGTCTGCGGCATCACCATGCACCATGGATCCCGGAGTCACCTAGTGCAG	3500 fluorescence intensity (a.u.)
GCCGGGACGACCACGTTCCTCACCATGGCCTACATCCTCGCGGAGTCACCTAGTGCAG	37500 fluorescence intensity (a.u.)
CGTTCTCATGCGGCATCCGTTTGTACGACCAGGGCCCATCCGGAGTCACCTAGTGCAG	3250 fluorescence intensity (a.u.)
AGAGAGGCATCTAGCGCGTGCACACATCAGCAGCAGGCAACGGAGTCACCTAGTGCAG	5920 fluorescence intensity (a.u.)

Sequence	binding signal
GCCAACCGCTTCAGTGTCAGTCACTCACAACCCAGTGATGCGGAGTCACCTAGTGCAG	3430 fluorescence intensity (a.u.)
AGTTGCGTGACAACTAATAAAATACTAACACAATGTCTTACGGAGTCACCTAGTGCAG	4060 fluorescence intensity (a.u.)
GTCCGATCGGACGCACCACGCATCCTAGCCGTCCACGCCACGGAGTCACCTAGTGCAG	3180 fluorescence intensity (a.u.)
TTATTTTATATACTGCCCTGCTCTTCTCTAAACAGCAGAGCGGAGTCACCTAGTGCAG	19000 fluorescence intensity (a.u.)
TCCTCCACCATGCGGGCCCCACACATATCCGGTTTCTTCTCGGAGTCACCTAGTGCAG	3640 fluorescence intensity (a.u.)
GAAACCCTCTTCTGGTTTCTTGCTCCACGGCGGCGGTTTGCGGAGTCACCTAGTGCAG	3640 fluorescence intensity (a.u.)
CATCGGCTAGATTTATTATCGATACGTCATCGGCTCATCACGGAGTCACCTAGTGCAG	7110 fluorescence intensity (a.u.)
GTTTGATTATGTGGTCTGCATGTGCCTAGTTTGACATCAGCGGAGTCACCTAGTGCAG	4580 fluorescence intensity (a.u.)
ATTGTGTACAGTTGATGTCATGTGTTGTCCCAATAGCAAACGGAGTCACCTAGTGCAG	5500 fluorescence intensity (a.u.)
GCGCGGAGCAGCTGCAGGGTCCACGTGATGCCGCGCCGTGCGGAGTCACCTAGTGCAG	4200 fluorescence intensity (a.u.)
GCGAGTGAACTAAATCATGCAACCGTATTGCTGACCAGACCGGAGTCACCTAGTGCAG	3400 fluorescence intensity (a.u.)
GGACTATAAGCTAACCACGCCACGCCGATATCACTGTTCCCGGAGTCACCTAGTGCAG	3710 fluorescence intensity (a.u.)
TATTTATTATATCCCCACCATGGAGCATCAGTCATCTTGTCGGAGTCACCTAGTGCAG	3430 fluorescence intensity (a.u.)
CGCGCGCTCGCGCGCTCGTGCCTTCCTCGTCACGACACCCCGGAGTCACCTAGTGCAG	3280 fluorescence intensity (a.u.)
GACTCGTCGAAACGGTGCAGACGGGGAGAGCCGAGCCAGTCGGAGTCACCTAGTGCAG	3370 fluorescence intensity (a.u.)
AAAATGTGCCAAGTCTGACCGCGTCTTAGTGAAGTACTTACGGAGTCACCTAGTGCAG	3280 fluorescence intensity (a.u.)
GCAGTCTCTAGTCTGTACAGGAGAGTTGCTTACCGTAGCCCGGAGTCACCTAGTGCAG	23600 fluorescence intensity (a.u.)
ACGCGGATCGGACGGCTCAGATGCAGCGCCACGACGATCGCGGAGTCACCTAGTGCAG	3390 fluorescence intensity (a.u.)
GAGGGCTGCTGTGCTATTCTTCCTGGACATCTCTGGTTCTCGGAGTCACCTAGTGCAG	4540 fluorescence intensity (a.u.)
TTTAGATGATTCGTCTCTGACTCGATTTTAACAGATTAATCGGAGTCACCTAGTGCAG	3710 fluorescence intensity (a.u.)
ACAATATGAACCAAAGTGCCTCGGTTCATACACTATCCTTCGGAGTCACCTAGTGCAG	3220 fluorescence intensity (a.u.)

An excerpt of these results, with bars between the fields.
Sequence | binding signal
CGACATCGGCCAGAAGCTCACCATGATGTTCTACGAGCGCCGGAGTCACCTAGTGCAG | 3280 fluorescence intensity (a.u.)
GTATAATATGTGTCGGTAATCTGTAGACTGGCTGACTGGGCGGAGTCACCTAGTGCAG | 6040 fluorescence intensity (a.u.)
AAAGATTAATCCATCCAGGCACGCAGGATCCGAGTCAGTCCGGAGTCACCTAGTGCAG | 4430 fluorescence intensity (a.u.)
GGACTATAAGCTAACCACGCCACGCCGATATCACTGTTCCCGGAGTCACCTAGTGCAG | 3710 fluorescence intensity (a.u.)
AAAATGTGCCAAGTCTGACCGCGTCTTAGTGAAGTACTTACGGAGTCACCTAGTGCAG | 3280 fluorescence intensity (a.u.)

Remaining list, next part.

Sequence	binding signal
GAGCTTTTGGCACACAAAATGACGTATGCATGTCTTATTACGGAGTCACCTAGTGCAG	4540 fluorescence intensity (a.u.)
CCAACGGTAAGTGAGGATTAATCAAGCTTAATCTCACCACCGGAGTCACCTAGTGCAG	3570 fluorescence intensity (a.u.)
TAGTTCGGGGCGTGACACACGTGTACTTCAAAATTCAAAGCGGAGTCACCTAGTGCAG	3650 fluorescence intensity (a.u.)
TTACTCTCAAGAATGATGTGGAATTTGAGCCGTTAAGAAACGGAGTCACCTAGTGCAG	3870 fluorescence intensity (a.u.)
GAGCCTTACCGGCTCAGACTTGGCATGACGTGGACGTACACGGAGTCACCTAGTGCAG	22500 fluorescence intensity (a.u.)
TGCCATTGCCACCACCTCGCTCTCTCCTTCCTTCTCCGACCGGAGTCACCTAGTGCAG	3350 fluorescence intensity (a.u.)
GGGCGGAGCTAGAATAAAATAAAGGAGGGTTCCACTCGTTCGGAGTCACCTAGTGCAG	23100 fluorescence intensity (a.u.)
CTGTCATGGGAAACAATGACTTGTGTGGTGGGGCGCCTCACGGAGTCACCTAGTGCAG	3690 fluorescence intensity (a.u.)
ATACCACAGATAATTACTGACAAGTCAGTGCAAACCATTGCGGAGTCACCTAGTGCAG	3530 fluorescence intensity (a.u.)
CGCTGTCTCGTCGCCCTCACGTACGACTTCCATCACGAGCCGGAGTCACCTAGTGCAG	24300 fluorescence intensity (a.u.)
ATGGATAATAAAAGCATCATATATCCACACGTGGTTAAACCGGAGTCACCTAGTGCAG	3960 fluorescence intensity (a.u.)
TCTCGTCCGCCACGTACTTGACGCTGCCCATCAAGGCAGCCGGAGTCACCTAGTGCAG	8140 fluorescence intensity (a.u.)
ATCTTTTGCCAGATCACCACGGCATGCCTCTTCCTCCTCCCGGAGTCACCTAGTGCAG	6980 fluorescence intensity (a.u.)
AGTCCGCATCGAGGAATAGGTTGATGTCATCTCCTGTGCTCGGAGTCACCTAGTGCAG	7100 fluorescence intensity (a.u.)
CGTAAGCTTATCAGCAAGTTTAATAGTATAGCTGGCTGCTCGGAGTCACCTAGTGCAG	21800 fluorescence intensity (a.u.)
TGCGCTCGTGGCGCGCTCTTTTCGCGCCAGGAAAATTTTCCGGAGTCACCTAGTGCAG	3910 fluorescence intensity (a.u.)
TTCTTTATTGCTTACCCTTACTCTTGGTTAACTTCTTCTGCGGAGTCACCTAGTGCAG	3290 fluorescence intensity (a.u.)
TAGGCTAGTCATTTAAACTGACTCACAGACAAACTGTTTGCGGAGTCACCTAGTGCAG	4320 fluorescence intensity (a.u.)
ACGGACGTGTTCACTACGATCTGTGGACCCGATACACTGGCGGAGTCACCTAGTGCAG	3400 fluorescence intensity (a.u.)
ACTTTTCGTTGCCGTGTTGGGATGTGCACCCTGATACCCGCGGAGTCACCTAGTGCAG	3310 fluorescence intensity (a.u.)
CCCTAGCCCTCGCCCTGGTCCGTCCGGCGTGGCGCGCGCTCGGAGTCACCTAGTGCAG	5150 fluorescence intensity (a.u.)

Sequence	binding signal
TGTGTAAACACAACCGTCCGTGACACGTACGTACATGGGGCGGAGTCACCTAGTGCAG	7700 fluorescence intensity (a.u.)
TCCTAAGCTAATACGTACTCTACGTGTTAATGGATTTGTTCGGAGTCACCTAGTGCAG	3840 fluorescence intensity (a.u.)
CGTGCGGAGATATTTCCGGACGGTGACAACGAAAATATCCCGGAGTCACCTAGTGCAG	3190 fluorescence intensity (a.u.)
TGGACTATTAGGGCATTAGCAGTGCGTCACTTGTATTTGTCGGAGTCACCTAGTGCAG	5550 fluorescence intensity (a.u.)
GAGTTAACCCATAGACCAGTGCATTGGTGTCACGGGAAACCGGAGTCACCTAGTGCAG	3210 fluorescence intensity (a.u.)
ATGCAGCAAGTGACGTACGCGTGAAGATCATATCGAGCCACGGAGTCACCTAGTGCAG	3900 fluorescence intensity (a.u.)
GGGCGGCGCGGCGGCGCGCGGAGGGCGACGGCTGACGGGGCGGAGTCACCTAGTGCAG	5580 fluorescence intensity (a.u.)
TCCCCAAGGCGCAAACGCGTGCCCCACCTGTCACCCACACCGGAGTCACCTAGTGCAG	3920 fluorescence intensity (a.u.)
AAAGCAGATAGTCAGAATGTTGACCTTGCCATCAGTCTTTCGGAGTCACCTAGTGCAG	7370 fluorescence intensity (a.u.)
GTCGAGGAATCATTTCACCTCTGCCTCTTGTCAGCTTCGCCGGAGTCACCTAGTGCAG	3560 fluorescence intensity (a.u.)
ATCGCTCGTGTGGATGCAAGCATAGCCTCATTCTGCCTTGCGGAGTCACCTAGTGCAG	4060 fluorescence intensity (a.u.)
GCACATCCACCACATAGACAAATTCATGTGTTTGCTTTTGCGGAGTCACCTAGTGCAG	3360 fluorescence intensity (a.u.)
TTACACGTTAAGAAAGTGCTAAGTAAACAAGACTGCCTGACGGAGTCACCTAGTGCAG	17700 fluorescence intensity (a.u.)
TCGAGGACGTCGTCGCCGCCAGCTCCGTCGGCGGCAACGGCGGAGTCACCTAGTGCAG	31400 fluorescence intensity (a.u.)
ACAGCGTAGGCTTTTCTTTCACGTCACCACGCGTACGCGACGGAGTCACCTAGTGCAG	6560 fluorescence intensity (a.u.)
AGGAGTGTAGGTAATTGGTGCATGTTGCTATCTAGAATGGCGGAGTCACCTAGTGCAG	3360 fluorescence intensity (a.u.)
AATATGAACTGATAGGATTTGTTTTCACACCATACCAAACCGGAGTCACCTAGTGCAG	59700 fluorescence intensity (a.u.)
GGTGGACATTAGGTCATCAGCACGTGCGAAGTAGGCCTCACGGAGTCACCTAGTGCAG	36600 fluorescence intensity (a.u.)
CTCTGATCTTGACATGACGTGACAACAACCACCAGGACATCGGAGTCACCTAGTGCAG	5080 fluorescence intensity (a.u.)
AGTTCGTTTCGCTCCTCGCCACGCACCGCTTCGCAGCCGCCGGAGTCACCTAGTGCAG	3970 fluorescence intensity (a.u.)
TCCCATCTTCGGTGACATCCTGTCTTTGCTTCTTAACTATCGGAGTCACCTAGTGCAG	3750 fluorescence intensity (a.u.)

Copied from the list:
ATGCAGCAAGTGACGTACGCGTGAAGATCATATCGAGCCACGGAGTCACCTAGTGCAG – binding signal: 3900 fluorescence intensity (a.u.)
TTACACGTTAAGAAAGTGCTAAGTAAACAAGACTGCCTGACGGAGTCACCTAGTGCAG – binding signal: 17700 fluorescence intensity (a.u.)
